About 3,700 (7%) of roughly 53,000 sequences were called active.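 How the source made its calls: active means gene knockdowns whose robust z-score for IL-1 alpha signal is at least 2 or at most -2, so actives lie on both sides; inactive means the rest.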 This is one part of the list.
Assay: Components of the Cytosolic LPS Sensing Pathway: Gene Identification via Genome-wide siRNA Screen;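 further: robust z of the log signal after scaling to non-targeting control siRNA wells of the plate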
Conditions: RAW264.7 macrophages, IL-1a HTRF, actives lie on both sides, screened at 100 nM (by protocol), cells primed 5 h with Pam3CSK4 first
Procedure, shortened: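 Supernatant IL-1a by HTRF from RAW264.7 cells primed with Pam3CSK4 (5 hours) and transfected with LipidA (24 hour) after 48h siRNA knockdown at 100 nM; cell viability checked with CellTiter-Glo.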
For GGCAUCAAGUGACUUAUAATT against Zfp772, the z-score was active: 2.47.
In the case of GGAGGAACCUGAAGAUCUGTT against Bcl2l11, the z-score is reported as inactive: 1.35.
With CCAUAACAGACCAGAUUCGTT against Gtf2h4 the z-score was inactive: -0.613.
In the case of GCUUGAGUCGUCAAAACUGTT against Mars1, the z-score is reported as inactive: -0.413.
In the case of GGGCUUUAUACCCUACGAATT against Ceacam13, the z-score is reported as inactive: -0.468.
With GGAGAGAGUGACCUUAAAUTT against Olfr818 the z-score was inactive: 0.0399.
With GGAGUCUGAUCAAUGGAAUTT against Hsd17b13 the z-score was inactive: 0.747.
For GCCUGGUUUCUCCCUCAAATT against Pkmyt1, the z-score was inactive: -0.567.
For GAGAGAGAGAGAAAAUCUGTT against Klra1, the z-score was inactive: -0.301.
With CCCACAAAGAUAGGCCGUGTT against Gm5136 the z-score was inactive: 0.358.
For GCAUACAAGACCGUGAUCATT against Psmc4, the z-score was active: -2.03.
In the case of GGCAUUCAGAUGACAAUGGTT against C1galt1, the z-score is reported as inactive: -1.43.
In the case of CCACUCUUACCAAGAAGAGTT against Mog, the z-score is reported as inactive: 0.468.
For GGAUAUAUUGAAAUGCCCATT against Zbtb14, the z-score was inactive: 0.394.
With GCGAUUGACUUUUACCGGATT against Naa50 the z-score was inactive: 1.22.
With GGACAGAAUCACGGUUUCCTT against Gbp8 the z-score was inactive: 0.376.
For GGCAUCAUCGAUGUUUAUGTT against Acot4, the z-score was inactive: -1.14.
With CCCGUUGCUUUAGAGCUCUTT against Dph2 the z-score was inactive: 0.912.
In the case of GGUCUUCCUUUUGGUCUUCTT against Olfr1240, the z-score is reported as inactive: -0.908.
With GGUUCACAGAGGCUAAGGUTT against Dph1 the z-score was inactive: 0.494.
In the case of GCCAUUUCUUACACCUAUATT against Olfr484, the z-score is reported as inactive: -1.09.
With GGAGCAAAUCUUCUGUGUATT against Cdc42ep1 the z-score was inactive: 0.889.
In the case of GGAGAUUGAAGAGCUCCGATT against Cabp1, the z-score is reported as inactive: -0.0021.
With GCGCAGACUUACAAUUAUUTT against Bms1 the z-score was inactive: 1.06.
In the case of GGUAUUCCCUAUGCUUCUCTT against Gpm6a, the z-score is reported as inactive: 1.3.
In the case of GCUUUAAAACAUAUGCCUGTT against Mip, the z-score is reported as inactive: 0.304.
In the case of GGACCGCCUUCAACAACAATT against Tpgs1, the z-score is reported as active: 2.68.
With GCAUCUCAAGACGAUGGAUTT against Akap8l the z-score was active: 2.3.
With CCUACAGUACCCAAAAUACTT against Tmem151a the z-score was inactive: -1.05.
For GGCAUACAAAUAUUCUUGCTT against H2bu1-ps, the z-score was inactive: 0.366.
In the case of GGCUAUGGAAACCACCACATT against Nrg3, the z-score is reported as inactive: -1.21.
For GGAAAGAUUGGAUUUGAAGTT against Zfp318, the z-score was inactive: -0.925.
With GGACCAGAUUGUGAUUGAUTT against Iftap the z-score was inactive: -0.145.
In the case of CGUGAACAAUUACUGAGCCTT against Wars2, the z-score is reported as inactive: -0.863.
In the case of CCCACCUGGCUUUUAUUGATT against Olfr1042, the z-score is reported as inactive: -1.24.
In the case of GCCCUUCGUGAUGAAGAAUTT against B4galt3, the z-score is reported as inactive: 0.829.
With GCUACUAAAAGUAAAUGUCTT against Ugt8a the z-score was inactive: 0.847.
In the case of CCAUAUGGAGUUCUCUAUATT against Rpf2, the z-score is reported as inactive: 0.69.
In the case of GGACAGUGAAGAGGAUUCCTT against Anapc15, the z-score is reported as inactive: -0.988.
In the case of CCCAGAUCAGAUUAUUUGGTT against Aldh3b3, the z-score is reported as inactive: -0.641.
In the case of GGUUAUUCAUUCAAAAUGGTT against Fastkd2, the z-score is reported as inactive: -0.457.
For GCCCAAGGUGAAUCUGUCATT against Trarg1, the z-score was inactive: -1.37.
In the case of GGAACAUGAAGACUAUACATT against Nek5, the z-score is reported as inactive: -0.905.
In the case of CGACUUCAUGAAAUACCAATT against Hacd1, the z-score is reported as inactive: 0.456.
In the case of GGUGACACAGGAGAAGAAGTT against Colec10, the z-score is reported as inactive: -0.00926.
For GACAUUGGGACCUUCGAGATT against Cnrip1, the z-score was inactive: -0.169.
In the case of GGAAGAGCACAUCAUUGCATT against Dcpp1, the z-score is reported as inactive: -0.181.
With CGGUUGGUGGCAAUAUCCUTT against Olfr279 the z-score was inactive: -0.0648.
With “GCCUUUCUCAUUCAGUCUCTT against Vmn1r239-ps” the z-score was inactive: 0.472.
In the case of GAAGAGAACGCGUUUUUGGTT against Defa5, the z-score is reported as inactive: 0.252.
For GGGAUCAAUUGAGUGUAAUTT against Slc16a10, the z-score was inactive: 0.00951.
For GCUAACAUUUUAAUGGCCCTT against Pnoc, the z-score was inactive: 0.233.
With GGCUUCAUUUCUUGAUGAUTT against Cenpc1 the z-score was inactive: -1.2.
For GGAGAAGAUUGUCAACAUUTT against Cyp1a2, the z-score was inactive: 0.65.
For GGCCUUUGUAGUAUCCCAGTT against Nudt16, the z-score was inactive: -0.709.
In the case of GGUGGAAUAUAGCUUCAUCTT against Ifngr2, the z-score is reported as inactive: 1.06.
For GCAUGUGAUUUCAGGUUGATT against Echdc1, the z-score was inactive: -0.319.
With GCGAGCUGUACCUUUCUAGTT against Lmo3 the z-score was inactive: -0.721.
With GGACAUAGUCCUUUUUGUUTT against Myod1 the z-score was inactive: -0.788.
With GGAUUUCCCAUCAAAGACGTT against Serpinf2 the z-score was inactive: 0.155.
With GCUGAUUACCUCAGCAGAUTT against Prkd3 the z-score was inactive: -1.48.
For GGGUGUCGUUCUGGUUUGUTT against Cltrn, the z-score was inactive: 0.417.
For GGCGCAUUAGCAGAGACUGTT against Mrps5, the z-score was active: 4.17.
In the case of GCCACUACUACAUCAAUGUTT against Mall, the z-score is reported as inactive: 1.24.
In the case of GCAGAAUGCUCACGUGGAUTT against Zfp532, the z-score is reported as inactive: 0.928.
For GGGCUGCUCACAAUUUAUATT against Tmem135, the z-score was inactive: 1.17.
With GGAAUUGUGCUGAAAAAGATT against Smim7 the z-score was inactive: -0.66.
For “GGAGCUCUCUAUUUAGUUATT against E130114P18Rik”, the z-score was inactive: 0.558.

From PubChem BioAssay AID1508600 (Functional Genomics Laboratory (NCATS/FGL), 2020)
